The values that follow come from article PMC10269391.

Amino acid sequences for entries named in this document (tags omitted). A change or cut given only in a name is not applied to a line headed by its entry.
UniProt P0A9Q1: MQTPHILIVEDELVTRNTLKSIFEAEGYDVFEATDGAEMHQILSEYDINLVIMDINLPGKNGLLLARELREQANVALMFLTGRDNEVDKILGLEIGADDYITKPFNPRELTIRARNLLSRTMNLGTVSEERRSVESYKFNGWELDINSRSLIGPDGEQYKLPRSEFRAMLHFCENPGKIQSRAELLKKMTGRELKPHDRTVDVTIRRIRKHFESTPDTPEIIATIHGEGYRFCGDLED

In this series the target is ArcA-6His phosphorylated (ArcA-P) (UniProt P0A9Q1). The experiment in a line: EMSA. The note with it: 10 mM Mg2+, 100 mM Tris pH 7.4, 10 mM MgCl2, 100 mM KCl, 5% glycerol, 2 mM DTT, recombinant protein, protein details: 6xHis (pET28a-arcA6His), label: none (SYBR Gold stain), probe letters rebuilt from the primers and the genome. A general note: Mobility shift assays separate free from complexed probe on a gel.

The exact form of at least one protein or probe is not confirmed.

With “TGCGACTTTCATCCTAAACTCCTTATTATATTGATAAACTAAGATATGTTGCTCCGCTGCCGCGACCTTAATCCACAAAATTGCCGTTTACAATGACCACATCTCAAGAATGTGTAGTCACGCAAGTTTAGCGTTTATGCATTTAATTGCCGTAATCAGGAACCTAACTTACGTAATTAACAGTCGCTTATGCATTAGCGCAACATTCCAACAGGTGGTGACAATATACCC (double strand) [mdh promoter region]”, under “strong shift similar to clbB, BSA (printed 400 µg/mg), 50 ng DNA, 30 min 37°C, 6% TBE gel, 0.5x TBE”, the binding result was “binds”. Turning to “TGGCAGTATTTAAGAGGAATTTACGATACAACGGTTTTTATGTAAATGGGAATTACGCATTATTTTCTATGTGGTGGCTGTATCAATTCATACCCGCTACATCATGTATGTACTGCATGACTTACATGTTTTTGCTTACAGACAGAATCTAATTCATTGAAGAAAAACATGTAATCAGAATATAAGGATTTTTTGGGGGTATTCCTGTAAGTGATAAAATGCAATATGATTATATGAATACGCAATAAAAAACTATACTTGCGGATAGGTGTGCCATTTAGAATAATCATGTTAAATAATCTATAAATCCGATAATAAGGTGATGGTTATGGATA (double strand) [clbB promoter region]”, the binding result (0-600 ng with 50 ng DNA, dose-dependent shift, BSA ([…]) is reported as “binds”.
